# Results of single-concentration screens

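Whole-parasite assay of Trypanosoma brucei over 72 hours; the read-out is not stated. Compounds at 30 µM. The record gives no direction; compounds that gave an IC50 in retests scored well above the rest, so higher reads as stronger inhibition. Values scatter widely below zero; nearly all retest evidence comes from the higher of the two concentrations used. Of about 64,000 compounds tested this way, about 940 (1.5%) reached 50% or more in at least one test.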

Each number is a percent effect as filed. The controls that fix the scale are not given in the record; negative values are as filed. Compounds were drawn at random from those tested, without regard to their results.

For CC(C)CN1CCc2c(CN(C)Cc3ccco3)cncc2C1.Cl.Cl.Cl the result was -2.843%. COc1ccccc1CC(=O)N(CCN1CCOCC1)Cc1ccco1 read -39.94%. Cc1nnc2n1CCN(C(=O)c1cc(C)n(-c3ccccc3)c1C)C2 gave 12.69%. For COCCN1CCCC12CCCN(c1nncs1)C2 (configuration not stated) the result was -70.86%. Result for Cc1cc(C(=O)N2CCOC[C@H](Oc3cccnc3)C2)c(C(F)(F)F)o1 was -66.57%.

For Cc1noc(C)c1S(=O)(=O)NC(=O)COc1ccc(C(C)C)cc1 the result was 4.595%. With O=C(O)C(F)(F)F.[H][C@@]12OCCN(C(=O)C3CCC3)[C@@]1([H])CC[C@H]2OCCCn1cccn1 the screen gave -14.88%. CC(C)N(C)Cc1cncc2c1CCN(CC1CC1)C2.Cl.Cl.Cl read -28.88%. CC(C)OCCC1CCCCN1S(C)(=O)=O (configuration not stated) read -21.21%. Result for Cc1ccccc1CNC(Cn1cncn1)c1ccccc1 (configuration not stated) was -9.065%.

For CN(C)CC1(O)CCN(S(=O)(=O)c2cccc(F)c2)C1 (configuration not stated) the result was -12.71%. For CC(=O)Nc1nc(CS(=O)(=O)Cc2ccccc2)cs1 the result was -9.779%. O=C(NCCCn1ccnc1)N1CCCC1c1ccncc1 (configuration not stated) gave -13.06%. With CCc1nnc2n1CC(CNCc1nc(-c3ccsc3)no1)CC2 (configuration not stated) the screen gave -312.1%. CCc1nc(C2CCCN2C(=O)c2cc[nH]n2)no1 (configuration not stated) gave 8.971%.

Result for COc1cc(N2CCCC3(CCN(c4cncnc4)C3=O)C2)ncn1 (configuration not stated) was -52%. With CCSc1nnc(CCNC(=O)OC(C)(C)C)o1 the screen gave -11.02%. For O=C(O)C(F)(F)F.O=C(O)C(F)(F)F.[H][C@@]12CCC(=O)N(c3cnn(C)c3)[C@]1([H])CCN2CCc1ccccc1 the result was -11.39%. Result for O=C(O)C(F)(F)F.O=C(O)C(F)(F)F.[H][C@@]12CCCO[C@]1([H])[C@@H](NC(=O)c1cccnc1)CN2Cc1cccs1 was 3.107%. CN1CCOC(CN(C(=O)Cc2ccccc2F)c2nccs2)C1 (configuration not stated) read 2.261%.

O=C(NCc1cnc2n1CCN(CC1CC1)CC2)C1CCC1 gave -0.1543%. With O=C1NCCCC12CCN(Cc1ccc(-c3ccccc3)s1)C2 (configuration not stated) the screen gave -24.43%. Result for CCNC(=O)N(Cc1cccc(OC)c1)C1CCC(O)CC1 (configuration not stated) was -31.13%. With Cc1nccn1-c1ncccc1NC(=O)CCOCC(C)C the screen gave -18.82%. CCc1nc(C)c([C@H]2CN(C)C[C@@H]2C(=O)Nc2ccccc2F)[nH]1 gave -19.38%.

CC(C)CCN(C)Cn1ncc2cn(-c3ccccc3)nc2c1=O gave -56.23%. CN(CCCO)C(=O)c1cc(COc2ccc3c(c2)CCCC3)on1 gave 5.968%. For COCc1ncn2c1CN(C(=O)Nc1cccc(OC)c1)CC2 the result was -10.41%. With Cc1ccc(NC(=O)N(C)C)c(C(=O)OCC(=O)NC2CCCC2)c1 the screen gave -1.701%. For Cc1cccc(OCCC(=O)N2CCCN(C(N)=O)CC2)c1C the result was -56.88%.

With COc1ccccc1S(=O)(=O)CCOC(C)C the screen gave -39.76%. With CC(NC(=O)NCCCN(C)S(C)(=O)=O)c1ccc(F)cc1 (configuration not stated) the screen gave -3.461%. CC(C)CNC(=O)CSC1CCc2ccccc2NC1=O (configuration not stated) read 0.9573%. CCn1nc(C)cc1C(=O)NCc1nc(C)no1 read -27.08%. O=C(O)C(F)(F)F.O=C(O)C(F)(F)F.O=C(O)c1c(-c2ccncc2)ncc2c1CCN(CC1CCOC1)C2 (configuration not stated) read 8.666%.

O=C(O)C(F)(F)F.[H][C@@]12COC[C@]1(COc1ccccn1)CN(C(=O)c1c(C)noc1C)C2 gave 33.9%. Cc1ncc(CC(=O)N2CCCC(COc3ccc(F)cc3)C2)c(=O)[nH]1 (configuration not stated) read -110.3%. CCOc1ccc(N2CCCN=C2NC(=O)c2ccc(Cl)cc2)cc1 gave -1.165%. CN1CCN(C2CCN(CCOc3cccc(F)c3)CC2)C1=O gave 6.889%. COc1cccc(CN2CCCCCC2c2sccc2C)c1O (configuration not stated) read -2.151%.

For Cc1cc(C(=O)Nc2cnn(CC(F)(F)F)c2)nc(N(C)C)n1 the result was 1.767%. C[C@@H](NC(=O)c1cnccn1)c1c(-c2ccc(Cl)cc2)noc1C(=O)O.Cl gave -26.12%. For CN(C)CC1CCCCN1C(=O)c1ccc(N2CCOCC2)cc1 (configuration not stated) the result was -4.954%. CCN1CCN(C(=O)c2cccc(CN3CCOCC3)c2)CC1 read -8.595%. With Cc1cnc(NC(=O)C(C)n2ccc(C(F)(F)F)n2)s1 (configuration not stated) the screen gave -7.451%.

For Cc1noc(CNC(=O)CN(C)c2nc3ccccc3s2)n1 the result was -4.618%. O=C(CC1CSc2nccc(=O)n21)NCc1ccco1 (configuration not stated) gave -20.27%. CN(Cc1ccsc1)C(=O)Cn1c(CS(C)(=O)=O)nc2ccccc21 gave 2.665%.

For reference, 6 entries once more:

| SMILES | Percent Effect |
|---|---|
| `Cc1noc(C)c1S(=O)(=O)NC(=O)COc1ccc(C(C)C)cc1` | 4.595 |
| `Cc1cc(C(=O)N2CCOC[C@H](Oc3cccnc3)C2)c(C(F)(F)F)o1` | -66.57 |
| `CN1CCOC(CN(C(=O)Cc2ccccc2F)c2nccs2)C1` (configuration not stated) | 2.261 |
| `CCc1nc(C2CCCN2C(=O)c2cc[nH]n2)no1` (configuration not stated) | 8.971 |
| `CN1CCN(C2CCN(CCOc3cccc(F)c3)CC2)C1=O` | 6.889 |
| `CC(=O)Nc1nc(CS(=O)(=O)Cc2ccccc2)cs1` | -9.779 |

Data taken from ChEMBL document CHEMBL3988442, “University of Dundee, Small-Polar-MMV Screening Library” (2021).